Measurements reported in PubChem BioAssay AID1259425 (University of Nebraska Medical Center, 2018).
Shown is one part, drawn at random, of about 14,000 reagents. The numbers tell different reagents against one gene apart. Not stated in the record: the time to read-out.

Test: 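Seek colon cancer weak points whose silencing resembles KSR1 loss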 (primary screen)
System: HCT116 human colon cancer cells
Reagent: siRNA pool against human genes, 50 nM siRNA
Read-out: 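After 50 nM siRNA pool, branched-DNA assay measures six marker transcripts per well, minus blank, normalised to the geometric mean of two housekeeping transcripts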
Direction: BNIP3L mRNA: higher = more BNIP3L transcript after knockdown; NDRG1 mRNA: higher = more NDRG1 transcript after knockdown; BNIP3 mRNA: higher = more BNIP3 transcript after knockdown; ALDOC mRNA: higher = more ALDOC transcript after knockdown; ACSL5 mRNA: higher = more ACSL5 transcript after knockdown

The opening 2 records, ahead of the listing:
no.	target gene	pool no.	BNIP3L mRNA, set 1	NDRG1 mRNA, set 1	BNIP3 mRNA, set 1	ALDOC mRNA, set 1	ACSL5 mRNA, set 1
1	PGPEP1	1	0.173	0.144	0.189	0.0192	0.0957
2	DMTN	1	0.0826	0.0991	0.281	0.0351	0.21

The list itself, from the first entry:
no.	target gene	pool no.	BNIP3L mRNA, set 1	NDRG1 mRNA, set 1	BNIP3 mRNA, set 1	ALDOC mRNA, set 1	ACSL5 mRNA, set 1
1	PGPEP1	1	0.173	0.144	0.189	0.0192	0.0957
2	DMTN	1	0.0826	0.0991	0.281	0.0351	0.21
3	PHC1	1	0.194	0.202	0.733	0.0147	0.262
4	RAB2B	1	0.162	0.206	0.346	0.0714	0.114
5	OTUB2	1	0.123	0.235	0.272	0.0271	0.199
6	SEC24C	1	0.162	0.163	0.22	0.0655	0.108
7	NAALAD2	1	0.0856	0.148	0.25	0.0365	0.132
8	FLT4	1	0.229	0.226	0.459	0.0205	0.427
9	MDFI	1	0.134	0.244	0.29	0.0225	0.164
10	CCDC186	1	0.144	0.12	0.254	0.0306	0.113
11	MEIS1	1	0.131	0.156	0.258	0.0206	0.14
12	MRE11	1	0.0622	0.148	0.307	0.0233	0.137
13	MATN1	1	0.152	0.941	0.277	0.0498	0.311
14	CAPN5	1	0.0673	0.144	0.26	0.039	0.0533
15	HSD17B2	1	0.0947	0.196	0.284	0.0203	0.237
16	JAG2	1	0.135	0.224	0.244	0.119	0.256
17	TPT1	1	0.083	0.154	0.362	0.0167	0.088
18	PPIP5K2	1	0.0954	0.182	0.264	0.0232	0.109
19	NT5C3A	1	0.084	0.197	0.22	0.0167	0.145
20	GAGE2E	1	0.148	0.466	0.314	0.0266	0.329
21	ARHGAP23	1	0.0845	0.0884	0.43	0.0262	0.126
22	IQSEC3	1	0.124	0.133	0.357	0.0102	0.0402
23	NOXA1	1	0.133	0.139	0.261	0.0313	0.189
24	BBOX1	1	0.194	0.357	0.31	0.0227	0.184
25	HMG20B	1	0.0714	0.114	0.327	-0.00635	0.273
26	PKIA	1	0.184	0.181	0.267	0.00274	0.171
27	ATG13	1	0.111	0.183	0.38	0.012	0.124
28	PARD6A	1	0.124	0.14	0.332	0.0199	0.151
29	ATXN8OS	1	0.0687	0.0536	0.266	0.0105	0.0779
30	MRNIP	1	0.0983	0.654	0.279	0.0288	0.279
31	ANAPC4	1	0.107	0.188	0.232	0.0168	0.141
32	SLC28A3	1	0.0384	0.754	0.295	0.00955	0.283
33	SMARCE1	1	0.0243	0.17	0.137	0.012	0.0909
34	PIP4K2A	1	0.199	0.0978	0.323	0.0264	0.226
35	ANXA4	1	0.119	0.596	0.316	0.00409	0.23
36	MECOM	1	0.0991	0.125	0.249	0.00971	0.179
37	MECOM	2	0.118	0.225	0.299	0.0105	0.338
38	BAG1	1	0.221	0.268	0.508	0.0673	0.269
39	HCCS	1	0.0706	0.138	0.24	0.0244	0.0808
40	SEH1L	1	0.113	0.21	0.323	0.0346	0.309
41	GPAA1	1	0.194	0.106	0.415	0.0423	0.231
42	OR2H1	1	0.32	0.239	0.765	0.0871	0.226
43	MMP20	1	0.0535	0.145	0.239	0.0192	0.101
44	DHX33	1	0.16	0.119	0.286	0.116	0.333
45	M6PR	1	0.0838	0.0979	0.272	0.0177	0.0906
46	EIF3G	1	0.136	0.0946	0.411	-0.00547	0.0326
47	ABTB1	1	0.143	0.0306	0.199	0.016	0.246
48	KIF1C	1	0.19	0.199	0.21	0.0489	0.146
49	DNAH3	1	0.0737	0.112	0.212	0.0136	0.19
50	B4GALNT1	1	0.098	0.121	0.426	0.0196	0.277
